The assay is described as follows: qHTS Assay for Lipid Storage Modulators in Drosophila S3 Cells.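 As to cell number change: cells counted by Cell Tracker Red CMTPX staining in the red channel.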 To be noted: BODIPY lipid droplet fluorescence, 18-24 h; for cell number change: measured here: cell count max response, cells fed with added oleic acid. A digest of the protocol: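 Drosophila S3 cells got compounds at several concentrations plus oleic acid (400 uM solution). Laser-scanning cytometry with 488 nm excitation read lipid droplets at 500-530 nm and cells at 575-640 nm. Percent activity was relative to 20 uM Triacsin C.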
A general note: qHTS replaces the single test concentration by a dilution series.

The mark [1] stands for this setting: measured here: cell number channel AC50, cells fed with added oleic acid.
The mark [2] stands for this setting: measured here: lipid fluorescence (Fed channel) AC50, cells fed with added oleic acid.

Experimental findings from PubChem BioAssay AID2685 (National Center for Advancing Translational Sciences (NCATS), 2010) are described below.

Molecules are shown by their SMILES. The list shows a part of the results. These are further read-outs of the screen, such as a control signal, another cell line or another target. No call is given for them. The list favours compounds with an active or inconclusive main result. Potencies come from curve fits of mixed quality, noted in brackets.

In the case of `Cc1cc(Br)ccc1NC(=O)CN1C(=O)CCC1=O`, the cell number change was found to be 7.13%.

In the case of `CC1=C(C(=O)N2CCCC(C(=O)c3cccc(C(F)(F)F)c3)C2)OCCO1` (configuration not stated), the cell number change is -35.5%. The concentration at half-maximal activity (AC50) (as a rule, the concentration at which the activity in the assay is half-maximal) under setting [1] is 25.9 µM [falling, single point]. Also, the AC50 under setting [2] is 18.4 µM [falling, single point].

For `O=C(CN1CCN(CC(=O)Nc2ccccc2F)CC1)Nc1ccc2c(c1)OCCO2`, the cell number change is -29.6%. The half-maximal activity concentration (AC50) under setting [2] is 29.1 µM [falling, single point].

In the case of `COC(=O)C1SCC2C(=O)N(Cc3ccc(Cl)cc3)CC(=O)N21` (configuration not stated), the cell number change is -47%. The AC50 under setting [1] was 23.1 µM [falling, single point]. Besides, the concentration at half-maximal activity (AC50) under setting [2] was 29.1 µM [falling, single point].

`CN(CC(=O)Nc1nc2ccccc2s1)S(=O)(=O)c1ccccc1`: the AC50 under setting [1] is 4.11 µM [rising, single point].

On to `COc1ccc(C(=O)NCCNC(=O)c2ccccn2)cc1`, for which the cell number change turned out to be 50%. For the same compound, the half-maximal activity concentration (AC50) under setting [1] was 18.4 µM [rising, partial curve, poor fit].

As for `CNC(=S)N1CCN(c2nc(-c3ccc(F)cc3)cs2)CC1`, the cell number change was -32.9%. Besides, under setting [1], the AC50 is 20.6 µM [falling, single point].

With `O=C(Nc1ccccc1C(=O)NCc1ccccc1)c1ccccc1`, the cell number change is -22%. The AC50 under setting [2] is 9.2 µM [falling, partial curve].

Take `CCOC(=O)Nc1ccc(S(=O)(=O)Nc2nccc(C)n2)cc1`: the cell number change is -5.7%. Besides, the AC50 under setting [1] was 6.51 µM [falling, partial curve].

Turning to `CCSc1nnc(N(CCC(=O)O)CCC(=O)O)s1`, the cell number change was -7.2%. The AC50 under setting [2] was 1.03 µM [falling, partial curve].

As to `O=S(=O)(NC1CCCCC1N1CCN(c2cccc(Cl)c2)CC1)c1ccccc1` (configuration not stated), the cell number change was found to be 18.3%. For the same compound, under setting [2], the AC50 was 4.61 µM [rising, partial curve].

For `Cn1cc([N+](=O)[O-])c(C(=O)Nc2cc(Oc3ccccc3)cc([N+](=O)[O-])c2)n1`, the cell number change was -0.853%. For the same compound, the concentration at half-maximal activity (AC50) under setting [2] is 29.1 µM [rising, single point].

`COC(=O)c1sccc1NC(=O)Nc1cccc(C(C)=O)c1`: the cell number change is -5.2%. Under setting [2], the concentration at half-maximal activity (AC50) was 0.82 µM [falling, full curve, poor fit].

In the case of `CS(=O)(=O)c1ccc(Cl)c(NC(=O)COC(=O)CNC(=O)c2ccc3ccccc3c2)c1`, the cell number change came to 9.8%. Also, the AC50 under setting [1] was 6.51 µM [falling, single point]. Further, under setting [2], the AC50 is 1.3 µM [falling, full curve].

Turning to `CC(=O)N1CCc2c(sc(NC(=O)C3CCN(S(=O)(=O)c4cccs4)CC3)c2C(N)=O)C1`, the cell number change came out at 28.9%.

As for `COc1ccc(OCc2cc(C(=O)N3CCN(C4CCCC4)CC3)no2)c(Cl)c1`, the cell number change is -1.76%. The AC50 under setting [2] was 0.116 µM [falling, full curve, poor fit].
